These are yes or no findings as the source states them, for the method shown. Binding can be weak; no strength is given. Where a sequence is shown, tags or fusion partners need not be part of it.

Amino acid sequences for entries named in this document (tags omitted). A change or cut given only in a name is not applied to a line headed by its entry.
UniProt Q24478: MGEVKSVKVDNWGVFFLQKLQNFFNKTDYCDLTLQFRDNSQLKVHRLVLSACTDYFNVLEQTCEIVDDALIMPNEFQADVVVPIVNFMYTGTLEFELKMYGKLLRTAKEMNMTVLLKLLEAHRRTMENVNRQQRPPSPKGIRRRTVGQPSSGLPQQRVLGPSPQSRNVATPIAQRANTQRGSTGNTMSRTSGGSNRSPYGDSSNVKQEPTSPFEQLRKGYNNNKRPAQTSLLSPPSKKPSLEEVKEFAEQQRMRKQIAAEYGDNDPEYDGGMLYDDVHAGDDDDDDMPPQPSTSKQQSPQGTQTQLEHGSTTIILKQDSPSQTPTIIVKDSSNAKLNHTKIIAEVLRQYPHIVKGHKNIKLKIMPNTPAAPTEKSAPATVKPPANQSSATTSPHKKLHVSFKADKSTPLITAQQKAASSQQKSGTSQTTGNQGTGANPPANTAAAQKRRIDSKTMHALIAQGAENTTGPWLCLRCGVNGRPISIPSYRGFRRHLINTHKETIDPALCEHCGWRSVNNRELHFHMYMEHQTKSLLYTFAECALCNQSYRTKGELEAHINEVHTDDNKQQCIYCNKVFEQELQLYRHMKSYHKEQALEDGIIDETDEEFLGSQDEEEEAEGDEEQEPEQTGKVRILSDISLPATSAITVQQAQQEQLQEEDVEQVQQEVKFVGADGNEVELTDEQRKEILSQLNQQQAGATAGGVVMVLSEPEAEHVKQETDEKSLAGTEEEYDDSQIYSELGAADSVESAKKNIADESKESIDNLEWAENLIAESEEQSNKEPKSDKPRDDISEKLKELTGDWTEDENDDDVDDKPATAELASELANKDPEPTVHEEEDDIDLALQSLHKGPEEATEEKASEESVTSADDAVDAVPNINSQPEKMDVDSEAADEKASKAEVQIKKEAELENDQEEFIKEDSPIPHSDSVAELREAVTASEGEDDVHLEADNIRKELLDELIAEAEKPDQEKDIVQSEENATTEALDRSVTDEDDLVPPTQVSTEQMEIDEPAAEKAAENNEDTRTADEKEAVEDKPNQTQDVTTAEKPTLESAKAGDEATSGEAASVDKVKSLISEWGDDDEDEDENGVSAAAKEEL

Assay [1] concerns the target CP190 region overlapping the M domain fused to the GAL4 DNA-binding domain (Drosophila). Kind of assay: two-hybrid; yeast strain pJ69-4A, Clontech plasmids; CP190 or its fragments fused to the GAL4 DNA-binding domain, Pita/ZIPIC or their fragments fused to the GAL4 activating domain; growth on media without tryptophan, leucine, histidine and adenine, 30°C.
Assay [2] has as its target CP190 BTB domain fused to the GAL4 DNA-binding domain (Drosophila) (UniProt Q24478). Described as above.

B1: ZIPIC fused to the GAL4 activating domain (protein, UniProt Q9VAB8 1-457)
chain: MNCCICQFSVRVPKDIHTDTVGHPPVLISELVLQCTRGTNYVLTEESSTICKKCCEKLARYHKSIQIARKLRGEILELIHSPYMSKDHKQTSYKEDDLDRETTISKFDGNIEEAQQQDEEEQELESVGTTVTLVGPAGIVEEVAEEEHTFIIKQSEEEDEFHSVDLELDIDNEIIINEEEAHEVEEVAHEIEEVAHEIEEEDLLPHDKQEAQEEDFFKEDTMSDFDEHLDGAIEYIISDGEDQEQDNESSGEYTVNIQCPSCPEKFSSRRAYNVHTKREHFPGYVCDQCGKTLQSYSGFIGHLQNHEPVKQFACPVCPERFSRKFRLKHHMAWHSGETPYQCDVCSKRFVHKVALYKHKMIHDSETKRLECQVCGFKTRTKAHLERHMRSHTGDKPFACPVCNKRFSQMYNMKAHLREHESPGTNRHRRFHCSKCTHTFINEQNYDAHVQRDDCTPV
On to B1, for which the binding entry in assay [1] is reported as “binds”.

B2: Pita fused to the GAL4 activating domain (protein, UniProt Q95RQ8 1-683)
chain: MAAKLEVREAMLTEKRVCRFCLTEQKLASIFEENPRVKTTANLPLQIMAITAIEVYAGDGMPGHICLECRLLFEHCYRFKQMCKRAETLLRQYPLTGNWPSPLEKPRAPMTMVASKKLLVVPAKTAEPSETPKKLLNTMAKSSSQVIIEDVQVLESAMVTPRTVAGSSPVPRRSHAYELKVDNNQELSMDDVQSMLEDMASELEKEFPDIPQKASPVKPKVLNKSSIRILNKGPAAPVEPRLATPKVKRDDSGNVAIVTEVLDSDLPLDDQDDPTKNAEKVATDVFPCPDCERSFPLQQLLEIHRLNHTRSRSFQCLLCEKSFFSKYDLAKHNFVHTGERPFKCAICSKAFTRKALLHRHERTHTDVPKFICVYCEKPFLSRQEMEKHAERHQKKRPFQCGVCTKSFAFKQGLERHETVHSTNLPFPCQHCERSFSTASKLARHLVAHAGKRAYPCKYCHKSYMLSHHLSRHLRTHTQTSDASFVCSECKVSYSNYNDLLDHALIHATASLKCPMCRKQIEDIDSVESHMDQHKQSERHACEFCDHIFLTQKCLQRHIEDDHVVEMEPYQNEFEDDGEGEGGVDEKEEHLDDFEDMDNVKQEEFVTEYLEDDALYEDHLDDSDESFTPPPPKQRKTNPPKDAQQSVRQTRSRDAQRITQKTGKNEGKPHHKLERNLKNRRSAK
B2: the binding entry in assay [2] is listed as “binds”.

The values above are taken from publication PMC4317163.
